{"source": "paper doi:10.1101/2020.02.25.965475", "molecular_target": "T1, FLAG-TEN (Cucumis sativus (cucumber)) (UniProt A0A0A0KSL1)", "T1 sequence (looked up)": "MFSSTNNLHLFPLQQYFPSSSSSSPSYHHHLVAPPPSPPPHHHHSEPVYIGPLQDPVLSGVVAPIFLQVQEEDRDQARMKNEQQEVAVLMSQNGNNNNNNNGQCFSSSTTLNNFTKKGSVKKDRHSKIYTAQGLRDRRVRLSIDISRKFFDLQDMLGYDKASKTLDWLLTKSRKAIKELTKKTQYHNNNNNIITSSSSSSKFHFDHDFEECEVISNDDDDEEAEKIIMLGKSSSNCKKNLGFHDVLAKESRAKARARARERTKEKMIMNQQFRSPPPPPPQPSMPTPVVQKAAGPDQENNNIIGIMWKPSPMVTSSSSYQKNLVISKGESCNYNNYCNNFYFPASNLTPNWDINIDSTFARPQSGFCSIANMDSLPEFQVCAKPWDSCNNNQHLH", "assay": "EMSA", "details": "residues 1-395", "note": "The comparison behind a weaker result is the experiment's own reference, which may not be listed here. Protein sequences can lack the tags named with them.", "data": [{"sequence": "AAATTAAGAATATTGTGGTCCCACTCAAATATAAAGTATTAATT (double strand) [GGTCCC probe (GTGGTCCCAC)]", "values": [{"measurement": "binding result", "result": "binds more weakly"}]}]}
